Sequences of proteins named here, by UniProt entry; tags and fusion partners are left off. A change or cut given only in a name is not applied to a line headed by its entry.
UniProt P06956: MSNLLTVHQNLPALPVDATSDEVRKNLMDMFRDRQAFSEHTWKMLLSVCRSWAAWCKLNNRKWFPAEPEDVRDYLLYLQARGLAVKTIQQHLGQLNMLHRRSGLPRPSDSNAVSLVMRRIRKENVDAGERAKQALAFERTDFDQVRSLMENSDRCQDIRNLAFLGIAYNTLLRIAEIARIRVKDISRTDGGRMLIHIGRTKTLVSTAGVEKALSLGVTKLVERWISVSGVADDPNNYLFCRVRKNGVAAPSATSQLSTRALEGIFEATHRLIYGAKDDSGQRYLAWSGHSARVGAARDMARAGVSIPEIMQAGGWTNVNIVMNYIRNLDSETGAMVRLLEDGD

According to article doi:10.1101/2021.07.31.454597 (bioRxiv, 2021):

Biological target: Cre^Yang (R72E/L115D/R199D) (UniProt P06956)
Assay: cryo-EM structure

Substance: Cre^Yin (D33A/A36V/R192A) (from UniProt P06956 1-343) (enzyme)
- binding: binds

Results are given in words; binding and its absence hold for the method and conditions named. A result given as binding can be weak or reduced; the word gives no strength.
